Drawing on paper PMC10272126, this text covers binding for ten substances.

By UniProt entry, the sequences of proteins in these tests, tags left out.
UniProt Q8WXI2: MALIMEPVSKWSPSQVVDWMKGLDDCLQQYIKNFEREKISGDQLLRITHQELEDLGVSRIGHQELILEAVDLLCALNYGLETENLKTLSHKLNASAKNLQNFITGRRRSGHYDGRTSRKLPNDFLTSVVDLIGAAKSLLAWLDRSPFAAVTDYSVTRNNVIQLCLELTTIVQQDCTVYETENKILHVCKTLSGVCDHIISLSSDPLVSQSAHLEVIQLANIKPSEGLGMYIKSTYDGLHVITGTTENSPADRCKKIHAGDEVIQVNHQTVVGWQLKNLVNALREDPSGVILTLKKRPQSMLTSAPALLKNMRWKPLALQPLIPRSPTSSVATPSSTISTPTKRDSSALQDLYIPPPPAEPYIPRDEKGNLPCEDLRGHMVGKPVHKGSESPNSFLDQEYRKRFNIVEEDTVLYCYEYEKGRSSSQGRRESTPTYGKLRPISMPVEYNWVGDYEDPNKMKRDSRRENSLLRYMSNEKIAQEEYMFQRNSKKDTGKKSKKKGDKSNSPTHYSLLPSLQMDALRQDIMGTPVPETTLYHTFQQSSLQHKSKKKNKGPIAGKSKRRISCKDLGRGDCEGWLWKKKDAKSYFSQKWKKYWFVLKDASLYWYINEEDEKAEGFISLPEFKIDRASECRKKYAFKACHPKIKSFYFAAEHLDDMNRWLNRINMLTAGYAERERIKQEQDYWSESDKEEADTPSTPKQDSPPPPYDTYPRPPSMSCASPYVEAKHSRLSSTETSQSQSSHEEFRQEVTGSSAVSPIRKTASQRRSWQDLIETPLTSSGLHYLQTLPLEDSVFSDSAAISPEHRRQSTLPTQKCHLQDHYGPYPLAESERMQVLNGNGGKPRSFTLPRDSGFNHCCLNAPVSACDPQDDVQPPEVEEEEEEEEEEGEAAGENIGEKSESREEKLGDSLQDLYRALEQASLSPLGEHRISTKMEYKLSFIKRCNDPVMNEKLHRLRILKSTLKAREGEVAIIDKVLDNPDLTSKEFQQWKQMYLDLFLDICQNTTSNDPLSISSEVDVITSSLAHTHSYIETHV
UniProt Q9C0H5: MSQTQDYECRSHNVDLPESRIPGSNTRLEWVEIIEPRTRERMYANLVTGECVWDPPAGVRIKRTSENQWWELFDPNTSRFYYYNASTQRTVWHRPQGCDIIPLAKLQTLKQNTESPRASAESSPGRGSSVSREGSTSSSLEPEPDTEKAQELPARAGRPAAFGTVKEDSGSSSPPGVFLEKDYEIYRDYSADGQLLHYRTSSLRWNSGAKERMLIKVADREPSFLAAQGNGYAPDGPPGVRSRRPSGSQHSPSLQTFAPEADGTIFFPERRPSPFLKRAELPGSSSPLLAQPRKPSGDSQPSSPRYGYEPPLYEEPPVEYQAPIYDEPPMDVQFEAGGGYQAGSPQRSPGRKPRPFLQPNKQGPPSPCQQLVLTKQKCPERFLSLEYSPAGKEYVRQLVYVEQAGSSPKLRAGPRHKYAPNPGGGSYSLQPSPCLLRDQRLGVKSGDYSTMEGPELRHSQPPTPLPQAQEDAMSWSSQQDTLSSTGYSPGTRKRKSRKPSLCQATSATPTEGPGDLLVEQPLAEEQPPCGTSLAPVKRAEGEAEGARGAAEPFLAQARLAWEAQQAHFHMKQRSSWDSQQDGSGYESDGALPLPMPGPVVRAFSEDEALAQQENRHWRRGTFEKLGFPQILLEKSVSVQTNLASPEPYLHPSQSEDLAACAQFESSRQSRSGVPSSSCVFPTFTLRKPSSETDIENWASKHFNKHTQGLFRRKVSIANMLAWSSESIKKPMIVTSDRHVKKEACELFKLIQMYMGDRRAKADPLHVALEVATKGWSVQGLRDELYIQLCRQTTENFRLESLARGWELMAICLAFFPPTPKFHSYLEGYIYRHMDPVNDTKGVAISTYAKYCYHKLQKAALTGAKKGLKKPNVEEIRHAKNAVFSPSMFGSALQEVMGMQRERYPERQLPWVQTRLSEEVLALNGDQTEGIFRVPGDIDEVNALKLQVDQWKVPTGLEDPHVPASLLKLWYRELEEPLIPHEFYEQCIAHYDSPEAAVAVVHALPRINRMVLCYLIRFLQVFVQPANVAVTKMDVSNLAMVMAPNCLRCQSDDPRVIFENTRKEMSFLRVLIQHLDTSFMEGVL
UniProt Q15438: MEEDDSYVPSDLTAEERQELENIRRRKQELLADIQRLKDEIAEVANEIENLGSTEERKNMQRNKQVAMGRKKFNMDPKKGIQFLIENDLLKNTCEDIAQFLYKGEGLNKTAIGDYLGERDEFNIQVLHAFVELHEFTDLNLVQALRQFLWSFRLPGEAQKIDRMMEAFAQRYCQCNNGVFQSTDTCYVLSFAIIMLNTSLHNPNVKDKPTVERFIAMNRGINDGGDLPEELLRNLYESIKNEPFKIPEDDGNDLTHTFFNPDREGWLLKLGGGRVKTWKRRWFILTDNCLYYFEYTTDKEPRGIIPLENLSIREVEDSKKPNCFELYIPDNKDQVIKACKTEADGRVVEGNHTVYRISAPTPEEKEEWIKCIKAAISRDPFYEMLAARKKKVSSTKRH
UniProt Q99418: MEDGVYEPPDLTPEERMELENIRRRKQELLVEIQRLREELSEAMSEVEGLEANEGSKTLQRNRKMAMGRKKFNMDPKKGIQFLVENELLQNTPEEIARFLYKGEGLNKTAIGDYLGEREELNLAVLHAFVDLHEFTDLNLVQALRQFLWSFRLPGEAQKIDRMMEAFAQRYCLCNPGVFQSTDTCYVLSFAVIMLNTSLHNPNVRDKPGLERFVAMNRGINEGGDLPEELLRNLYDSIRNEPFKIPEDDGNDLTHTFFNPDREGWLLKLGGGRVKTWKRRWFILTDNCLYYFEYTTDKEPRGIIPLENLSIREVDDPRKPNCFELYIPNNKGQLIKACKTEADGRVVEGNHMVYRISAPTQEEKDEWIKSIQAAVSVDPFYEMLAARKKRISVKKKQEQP
UniProt O43739: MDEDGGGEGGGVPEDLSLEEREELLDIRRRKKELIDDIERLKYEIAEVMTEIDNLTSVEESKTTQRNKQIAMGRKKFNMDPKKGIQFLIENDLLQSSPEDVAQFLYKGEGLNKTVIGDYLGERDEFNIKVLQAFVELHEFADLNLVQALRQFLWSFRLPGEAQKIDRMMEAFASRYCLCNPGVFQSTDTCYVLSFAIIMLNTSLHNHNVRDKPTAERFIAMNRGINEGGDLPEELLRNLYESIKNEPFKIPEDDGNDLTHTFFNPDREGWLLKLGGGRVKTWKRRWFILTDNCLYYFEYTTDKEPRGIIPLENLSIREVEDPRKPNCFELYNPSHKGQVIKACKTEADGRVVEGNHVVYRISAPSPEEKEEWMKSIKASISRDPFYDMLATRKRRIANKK
UniProt Q8N8I0: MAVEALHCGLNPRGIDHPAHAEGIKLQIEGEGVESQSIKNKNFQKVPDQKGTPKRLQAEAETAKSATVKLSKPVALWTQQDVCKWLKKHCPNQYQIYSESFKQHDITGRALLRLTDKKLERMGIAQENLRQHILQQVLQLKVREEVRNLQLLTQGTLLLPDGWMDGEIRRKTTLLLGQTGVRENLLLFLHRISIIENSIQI
UniProt Q14160: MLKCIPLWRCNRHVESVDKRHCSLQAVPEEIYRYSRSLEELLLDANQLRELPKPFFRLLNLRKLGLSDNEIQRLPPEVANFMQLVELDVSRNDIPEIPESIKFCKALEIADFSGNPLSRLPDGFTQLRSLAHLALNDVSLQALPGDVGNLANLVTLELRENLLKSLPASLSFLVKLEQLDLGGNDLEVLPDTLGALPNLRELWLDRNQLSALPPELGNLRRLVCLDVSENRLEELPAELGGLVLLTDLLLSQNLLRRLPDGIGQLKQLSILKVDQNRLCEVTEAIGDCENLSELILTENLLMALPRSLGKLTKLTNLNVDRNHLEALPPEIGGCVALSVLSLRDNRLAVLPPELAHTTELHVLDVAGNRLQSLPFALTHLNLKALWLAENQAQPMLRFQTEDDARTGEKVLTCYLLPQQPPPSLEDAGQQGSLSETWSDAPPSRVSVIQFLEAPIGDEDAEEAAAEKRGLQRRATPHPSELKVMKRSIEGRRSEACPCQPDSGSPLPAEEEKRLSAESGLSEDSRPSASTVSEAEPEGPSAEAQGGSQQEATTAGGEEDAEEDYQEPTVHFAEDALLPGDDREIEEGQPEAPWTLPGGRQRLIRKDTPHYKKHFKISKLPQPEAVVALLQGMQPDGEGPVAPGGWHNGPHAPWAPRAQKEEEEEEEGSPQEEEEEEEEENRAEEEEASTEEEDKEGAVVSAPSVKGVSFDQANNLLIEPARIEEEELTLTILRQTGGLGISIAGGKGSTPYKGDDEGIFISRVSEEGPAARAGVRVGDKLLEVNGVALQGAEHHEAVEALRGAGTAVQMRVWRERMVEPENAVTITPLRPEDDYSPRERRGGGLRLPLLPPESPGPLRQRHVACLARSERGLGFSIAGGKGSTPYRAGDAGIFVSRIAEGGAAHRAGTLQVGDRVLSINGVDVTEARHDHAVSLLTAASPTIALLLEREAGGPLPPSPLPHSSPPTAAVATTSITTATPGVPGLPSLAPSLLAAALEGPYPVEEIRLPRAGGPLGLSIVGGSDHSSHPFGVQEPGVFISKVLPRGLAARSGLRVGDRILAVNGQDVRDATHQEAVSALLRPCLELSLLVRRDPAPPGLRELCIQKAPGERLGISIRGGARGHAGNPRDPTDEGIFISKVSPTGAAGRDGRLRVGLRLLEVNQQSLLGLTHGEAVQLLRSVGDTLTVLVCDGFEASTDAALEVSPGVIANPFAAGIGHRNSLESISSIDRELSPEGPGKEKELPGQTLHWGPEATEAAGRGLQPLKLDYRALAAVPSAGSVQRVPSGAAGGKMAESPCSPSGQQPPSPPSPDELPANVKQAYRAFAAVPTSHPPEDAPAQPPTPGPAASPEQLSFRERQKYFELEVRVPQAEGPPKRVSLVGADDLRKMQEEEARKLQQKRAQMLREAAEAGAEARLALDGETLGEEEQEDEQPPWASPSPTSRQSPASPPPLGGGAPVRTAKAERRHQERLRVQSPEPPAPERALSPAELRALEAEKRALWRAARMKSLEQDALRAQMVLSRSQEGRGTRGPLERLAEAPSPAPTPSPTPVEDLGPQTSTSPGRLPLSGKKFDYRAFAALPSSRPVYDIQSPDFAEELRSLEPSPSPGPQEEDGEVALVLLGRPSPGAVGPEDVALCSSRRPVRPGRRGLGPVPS
UniProt Q9UKE5: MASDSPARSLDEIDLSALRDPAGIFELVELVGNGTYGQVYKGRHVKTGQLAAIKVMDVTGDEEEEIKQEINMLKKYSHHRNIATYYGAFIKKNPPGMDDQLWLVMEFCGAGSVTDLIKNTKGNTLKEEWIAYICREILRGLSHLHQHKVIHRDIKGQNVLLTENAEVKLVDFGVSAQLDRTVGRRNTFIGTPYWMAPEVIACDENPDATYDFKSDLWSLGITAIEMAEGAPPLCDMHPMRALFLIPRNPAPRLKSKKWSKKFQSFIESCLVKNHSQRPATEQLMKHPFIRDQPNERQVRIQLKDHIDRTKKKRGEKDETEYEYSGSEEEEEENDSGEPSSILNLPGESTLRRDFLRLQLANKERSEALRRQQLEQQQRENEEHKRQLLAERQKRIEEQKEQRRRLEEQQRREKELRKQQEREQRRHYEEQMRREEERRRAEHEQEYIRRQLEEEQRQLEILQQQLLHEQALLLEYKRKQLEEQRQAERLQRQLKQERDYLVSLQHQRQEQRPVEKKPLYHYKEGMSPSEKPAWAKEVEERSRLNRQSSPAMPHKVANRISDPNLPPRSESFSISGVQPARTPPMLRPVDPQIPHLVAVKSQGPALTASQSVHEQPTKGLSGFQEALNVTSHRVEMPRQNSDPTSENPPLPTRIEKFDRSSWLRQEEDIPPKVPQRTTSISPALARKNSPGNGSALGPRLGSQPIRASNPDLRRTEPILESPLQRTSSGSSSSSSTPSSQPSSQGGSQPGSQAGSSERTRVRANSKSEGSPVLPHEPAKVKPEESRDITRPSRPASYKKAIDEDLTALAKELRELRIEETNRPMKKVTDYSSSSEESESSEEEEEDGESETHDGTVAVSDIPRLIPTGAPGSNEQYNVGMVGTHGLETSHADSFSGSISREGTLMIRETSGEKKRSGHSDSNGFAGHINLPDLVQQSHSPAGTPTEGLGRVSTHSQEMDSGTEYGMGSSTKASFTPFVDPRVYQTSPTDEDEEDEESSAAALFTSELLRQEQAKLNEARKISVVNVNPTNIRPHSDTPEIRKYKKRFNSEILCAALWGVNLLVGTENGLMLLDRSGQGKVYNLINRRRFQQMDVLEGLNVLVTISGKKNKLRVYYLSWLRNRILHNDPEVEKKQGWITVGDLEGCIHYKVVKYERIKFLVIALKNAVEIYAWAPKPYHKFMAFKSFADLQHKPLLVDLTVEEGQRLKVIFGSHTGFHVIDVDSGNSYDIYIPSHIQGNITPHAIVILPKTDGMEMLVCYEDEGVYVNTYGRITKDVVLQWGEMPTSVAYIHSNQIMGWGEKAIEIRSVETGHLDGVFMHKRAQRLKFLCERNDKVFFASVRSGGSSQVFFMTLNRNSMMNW

Experiment [1] has as its target FLAG-BirA*-CNK2A (human) (UniProt Q8WXI2). The experiment in a line: proximity labelling; BioID in Flp-In T-REx HEK293 cells expressing FLAG-BirA*-tagged CNK baits; 1 ug/mL tetracycline and 50 uM biotin for 24 h; streptavidin pull-down from RIPA lysate, mass spectrometry, SAINTexpress score >= 0.8.
For experiment [2] the target is unchanged. Kind of experiment: proximity labelling; BioID in Flp-In T-REx U2OS cells expressing FLAG-BirA*-CNK2A; 1 ug/mL tetracycline and 50 uM biotin for 24 h; streptavidin pull-down from RIPA lysate, mass spectrometry, SAINTexpress score >= 0.8.
A further experiment concerns the target T1, FLAG-BirA*-CNK1 (human) (UniProt Q969H4).
T1 sequence: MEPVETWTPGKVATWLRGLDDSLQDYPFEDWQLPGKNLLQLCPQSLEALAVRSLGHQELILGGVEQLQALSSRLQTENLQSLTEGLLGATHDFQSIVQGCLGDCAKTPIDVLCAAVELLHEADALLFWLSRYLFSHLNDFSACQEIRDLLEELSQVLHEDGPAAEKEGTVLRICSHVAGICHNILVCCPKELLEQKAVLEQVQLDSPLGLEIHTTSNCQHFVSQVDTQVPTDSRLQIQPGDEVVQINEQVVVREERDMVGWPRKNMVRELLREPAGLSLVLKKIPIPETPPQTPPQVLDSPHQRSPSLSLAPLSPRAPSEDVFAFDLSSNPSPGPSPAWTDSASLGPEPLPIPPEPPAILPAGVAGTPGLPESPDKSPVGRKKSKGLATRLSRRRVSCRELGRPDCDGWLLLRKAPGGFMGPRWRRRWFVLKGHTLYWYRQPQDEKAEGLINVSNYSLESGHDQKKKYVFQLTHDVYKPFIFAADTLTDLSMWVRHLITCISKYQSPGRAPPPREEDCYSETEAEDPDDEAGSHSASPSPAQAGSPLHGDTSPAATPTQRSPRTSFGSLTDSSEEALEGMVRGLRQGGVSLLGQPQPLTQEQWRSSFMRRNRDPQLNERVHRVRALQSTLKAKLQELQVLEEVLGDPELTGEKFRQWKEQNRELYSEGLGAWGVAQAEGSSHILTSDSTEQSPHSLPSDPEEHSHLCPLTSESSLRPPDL
The experiment in a line: proximity labelling; BioID in Flp-In T-REx HEK293 cells expressing FLAG-BirA*-tagged CNK baits; 1 ug/mL tetracycline and 50 uM biotin for 24 h; streptavidin pull-down from RIPA lysate, mass spectrometry, SAINTexpress score >= 0.8.

No constants are given. Whether binding was seen depends on the method and setting. In cells and extracts the contact can be indirect. Here binding means that the protein was enriched with, or labelled near, the bait; the list need not be complete. For part of these data: Sequences can lack the tags named with a protein.

As to “ARHGAP39 (Vilse) (from UniProt Q9C0H5 1-1083)”, the binding result with FLAG-BirA*-CNK2A (human) [1] was “binds”.
As for CYTH1 (from UniProt Q15438 1-398), the binding result with FLAG-BirA*-CNK2A (human) [2], with FLAG-BirA*-CNK1 (human) and with FLAG-BirA*-CNK2A (human) [1] was “binds” each time.
CYTH2 (from UniProt Q99418 1-400): the binding entry with FLAG-BirA*-CNK2A (human) [2], in the experiment with FLAG-BirA*-CNK1 (human) and in the experiment with FLAG-BirA*-CNK2A (human) [1] was “binds” each time.
Take CYTH3 (from UniProt O43739 1-400): the binding entry with FLAG-BirA*-CNK2A (human) [2], in the experiment with FLAG-BirA*-CNK1 (human) and with FLAG-BirA*-CNK2A (human) [1] was “binds” in each case.
Regarding MAP4K4 (from UniProt O95819 1-1239), the binding result with FLAG-BirA*-CNK2A (human) [2] and in the experiment with FLAG-BirA*-CNK2A (human) [1] was “binds” throughout.
For MINK1 (from UniProt Q8N4C8 1-1332), the binding entry in the experiment with FLAG-BirA*-CNK2A (human) [2] and with FLAG-BirA*-CNK2A (human) [1] was “binds” throughout.
As to NF2 (from UniProt P35240 1-595), the binding result in the experiment with FLAG-BirA*-CNK2A (human) [2] and with FLAG-BirA*-CNK2A (human) [1] was “binds” in each case.
Take SAMD12 (from UniProt Q8N8I0 1-201): in the experiment with FLAG-BirA*-CNK2A (human) [2], the binding entry is given as “binds”.
On to SCRIB (from UniProt Q14160 1-1655), for which the binding entry in the experiment with FLAG-BirA*-CNK2A (human) [2] and in the experiment with FLAG-BirA*-CNK2A (human) [1] was “binds” in each case.
Take TNIK (from UniProt Q9UKE5 1-1360): the binding entry with FLAG-BirA*-CNK2A (human) [2] and with FLAG-BirA*-CNK2A (human) [1] was “binds” in each case.
